These are yes or no findings as the source states them, for the method shown. In cells and extracts the contact can be indirect. Some results given as binding are weak or reduced against the parent protein; the word gives no strength.
Legend:
[1] = target: Myc-tagged NOD2 (full-length, pCMV-Myc-NOD2) (human) (UniProt Q9HC29); test: co-IP; HEK293T cells transfected 24 h, lysed in RIPA buffer (50 mM TrisCl, 150 mM NaCl, 1% NP-40, 0.5% deoxycholate, 0.1% SDS); anti-Myc or anti-GFP antibodies at 4°C, Protein G Sepharose, five washes, immunoblot; in some panels cells treated with gMDP (5 µg/mL, 4 h) or with scrambled siRNA or si-p62; for NOD2 with itself Myc-NOD2 was precipitated and the HA-tagged copy blotted
[2] = target: GFP-conjugated p62 (full-length p62/SQSTM1 in pEGFP-C1) (human) (UniProt Q13501); test: as above

| binding [1] | binding [2] | Substance |
| --- | --- | --- |
| binds | – | GFP-conjugated p62 (full-length p62/SQSTM1 in pEGFP-C1) (from UniProt Q13501-1 1-440) |
| binds | binds | Myc-tagged NOD2 (full-length, pCMV-Myc-NOD2) (from UniProt Q9HC29 1-1040) |

Reference: PMC3577775
